# Measured values published in patent US6825205B2 (priority 2002, dated 2004).
# Assay: in vivo
# Details: Sprague-Dawley, rat, ip, 10 mg/kg
structure (smiles),measurement,value
"CN1CC[C@]23c4c5ccc(O)c4O[C@H]2[C@@H](O)C=C[C@H]3[C@H]1C5 [Morphine, reference compound]",Kp,0.42 ± 0.13
